Experimental data published in PubChem BioAssay AID540276 (National Center for Advancing Translational Sciences (NCATS), 2011).
Among all 300,000 compounds or so, about 5,400 (1.8%) were called active. Inconclusive results, whose numbers are uncertain, are shown with a selection of clear calls. The call rests on the fitted dose curve; tested in HEK293 cells. Potencies beside an inconclusive call are fits to weak or partial responses and may not hold up.

test: qHTS for inhibitors of binding or entry into cells for Marburg Virus; settings: Marburg virus pseudotyped entry inhibition, cell reporter; activity change, negative = inhibition: at 37.8 µM (top of the series) unless noted
On the % scale 0 is the no-effect control and ±100 the full control effect; potency means the concentration at half of the fitted maximal effect.

SMILES | Potency | activity change, negative = inhibition
O=C(NC(=S)Nc1nc2c(s1)CCCC2)c1ccccc1 | inconclusive: 5.01 µM [activator, partial curve] | –
O=C(Nc1cccc(O)c1)c1cc(S(=O)(=O)N2CCCC2)ccc1Cl | inconclusive: 17.8 µM [inhibitor, partial curve, poor fit] | –
CCOC(=O)c1c(/N=C/c2ccccc2O)sc2c1CCC2 | inconclusive: 22.4 µM [inhibitor, single point] | –
Cc1cccc(C(=O)NC2CC3CCCC(C2)N3Cc2ccccc2)c1 (stereo unspecified) | active: 3.16 µM | –
CC(C)NC(=O)CCn1nc(-c2ccc(Cl)cc2)c2ccccc2c1=O | inconclusive: 35.5 µM [inhibitor, single point] | –
Cc1cccc(C(=O)OCC(=O)Nc2nnc(-c3ccccc3)o2)c1O | inconclusive: 1.12 µM [inhibitor, partial curve, poor fit] | –
O=c1[nH]c2ccccc2nc1CCc1ccccc1 | – | inactive: 3.8%
Cc1ccnc(N2C(=O)c3cccc4c([N+](=O)[O-])ccc(c34)C2=O)c1 | active: 20.6 µM | –
COc1cccc(/C=C/C(=O)c2ccc(NC3=NCCCS3)cc2)c1 | inconclusive: 20 µM [inhibitor, partial curve, poor fit] | –
CCN(CC)S(=O)(=O)c1ccc2c(c1)N(CC(=O)N(C)Cc1ccccc1)C(=O)CO2 | – | inactive: 20.1% [at 46.1 µM]
O=C(CC(=O)c1ccccc1O)c1cccc(F)c1 | inconclusive: 0.631 µM [activator, partial curve, poor fit] | –
O=C(CCN1C(=O)/C(=C/c2ccc(Cl)cc2)SC1=S)Nc1cccnc1 | – | inactive: 4.84% [at 46.1 µM]
COc1cccc(CN2CCN(C(=O)c3ccco3)CC2)c1OC | – | inactive: -21.4%
Cc1ccc(N=Cc2cc(Cc3ccccc3Cl)cc([N+](=O)[O-])c2O)c(O)c1 | – | inactive: -1.57%
Cc1ccsc1/C=C1\CCC(C2CCCC2)C1=O (stereo unspecified) | active: 7.94 µM | –
Nc1nc(NC2CCCC2)cc(=O)[nH]1 | – | inactive: 25.7%
CC(C)(C)c1ccc(C2NC(=O)c3n[nH]c(-c4cccs4)c32)cc1 (stereo unspecified) | inconclusive: 11.2 µM [inhibitor, single point] | –
Cc1cccn2c(=O)c3cc(C(=O)NCCc4ccccc4)c(=N)n(CCCn4ccnc4)c3nc12 | inconclusive: 12.6 µM [inhibitor, partial curve, poor fit] | –
Cc1ccccc1/C=N/NC(=O)Cn1nnc(N)n1 | inconclusive: 5.62 µM [inhibitor, single point] | –
Cc1nn(C)c(C)c1NC(=O)COc1ccc(Cl)cc1Br | inconclusive: 5.01 µM [inhibitor, full curve] | –
Cc1cccc(OP(=O)(NCc2ccccc2)Oc2cccc(C)c2)c1 | inconclusive: 17.8 µM [inhibitor, single point] | –
Cc1ccccc1NC(=S)N1CCN(c2ccccc2)CC1 | – | inactive: 15.2% [at 46.1 µM]
CCCCOc1ccc(C2OC34CCCCC3C(C#N)(C#N)C2(C#N)C(=N)O4)cc1 (stereo unspecified) | inconclusive: 3.98 µM [activator, partial curve, poor fit] | –

SMILES | Potency | activity change, negative = inhibition
Cc1cc2ncc(-c3cccc(Cl)c3)cn2n1 | inconclusive: 1.78 µM [activator, partial curve, poor fit] | –
Cc1ccccc1-c1cnn(-c2cccc([N+](=O)[O-])c2)c1N | – | inactive: -18.2% [at 46.1 µM]
COc1ccc(C)cc1NC(=O)C(=O)NCC1(c2ccccc2)CCCC1 | inconclusive: 35.5 µM [inhibitor, single point] | –
O=C(NC1CCCCCC1)C1c2ccccc2C(=O)N1CCCN1CCOCC1 (stereo unspecified) | – | inactive: 23.7%
COc1cc(OC)c(C2C(C(=O)O)c3ccccc3C(=O)N2C)cc1OC (stereo unspecified) | – | inactive: -19% [at 46.1 µM]
CCOC(=O)c1[nH]c(C)c(C(=O)OCc2c(C)noc2C)c1C | inconclusive: 14.1 µM [inhibitor, single point] | –
O=C1CCC/C(=N\NC(=O)COc2ccc(Cl)cc2)C1 | inconclusive: 5.62 µM [activator, single point] | –
CCCC(c1nnnn1Cc1ccco1)N1CCN(c2cc(Cl)ccc2C)CC1 (stereo unspecified) | inconclusive: 22.4 µM [inhibitor, single point] | –
C(=N\n1cnnc1)/c1cccc(OCCOc2ccccc2)c1 | inconclusive: 35.5 µM [inhibitor, single point] | –
CCc1ccc(CNc2ccc3c(c2)ncn3C)cc1 | – | inactive: 10.2%
CCOC(=O)C1CCCN(S(=O)(=O)c2cc(OCC(=O)NC3CCCCC3)c(C)cc2Cl)C1 (stereo unspecified) | inconclusive: 0.146 µM [inhibitor, full curve, poor fit] | –
O=[N+]([O-])c1ccc(Sc2n[nH]c(-c3ccco3)n2)nc1 | inconclusive: 7.94 µM [activator, partial curve, poor fit] | –
COc1ccc(O[C@H]2C=C[C@@H](c3ccccc3)O[C@H]2COC(=O)CCC(C)=NO[C@H](C)c2cn([C@H](CO)Cc3ccccc3)nn2)cc1 | – | inactive: -8.59% [at 14.2 µM]
CC1CCN(C(=O)CSc2ccc(-c3ccc(F)cc3)nn2)CC1 | – | inactive: 2.36%
Cc1ccc(C(=O)c2cc([N+](=O)[O-])ccc2N2CCCCC2)c(C)c1 | inconclusive: 0.501 µM [inhibitor, full curve] | –
CC1CCN(CC(=O)Nc2nc(-c3ccccc3)cs2)CC1 | inconclusive: 22.4 µM [inhibitor, partial curve, poor fit] | –
Nc1c(C(=O)NC2CCCC2)c2nc3ccccc3nc2n1/N=C/c1ccco1 | – | inactive: -4.85%
O=C(Nc1ccccc1)c1ccc2c(c1)OCCO2 | inconclusive: 35.5 µM [inhibitor, single point] | –
Cc1ccccc1N1C(=O)[C@@H]2[C@H](ON(c3ccccc3)[C@H]2c2ccncc2)C1=O | – | inactive: -6.19%
CCc1nc(Nc2ccncc2)c2oc3ccccc3c2n1 | inconclusive: 35.5 µM [inhibitor, partial curve, poor fit] | –
CCOc1ccccc1NC(=O)CSc1cn[nH]n1 | – | inactive: 0.526% [at 46.1 µM]
COc1ccc(CN(C)CC(=O)Nc2cccc(S(=O)(=O)N(C)c3ccccc3)c2)c(OC)c1 | inconclusive: 35.5 µM [inhibitor, single point] | –
O=C(Nc1ccc(S(=O)(=O)Nc2ccc(Cl)cc2)cc1)C1CCCO1 (stereo unspecified) | – | inactive: -14.5%

In another format: 2 of the compounds above
SMILES	Potency	activity change, negative = inhibition
COc1ccc(O[C@H]2C=C[C@@H](c3ccccc3)O[C@H]2COC(=O)CCC(C)=NO[C@H](C)c2cn([C@H](CO)Cc3ccccc3)nn2)cc1	–	inactive: -8.59% [at 14.2 µM]
CCOc1ccccc1NC(=O)CSc1cn[nH]n1	–	inactive: 0.526% [at 46.1 µM]
